{"source": "paper PMC5458187", "about": "“Inhibitor SBFI26 suppresses the malignant progression of castration-resistant PC3-M cells by competitively binding to oncogenic FABP5” (Oncotarget, 2017)", "tested_on": "PC3-M-Luc8 cells implanted orthotopically into the prostate gland", "test": "Orthotopic nude mouse assay of tumorigenicity and metastasis", "conditions": "day 25, 1 mg/kg intraperitoneally", "note": "A number of entries come with more than one value. The other results are left out here. An entry can have further records. Values that stand side by side seem to repeat one measurement on other runs, samples or individuals.", "data": [{"smiles": "O=C(O)C1C(c2ccccc2)C(C(=O)Oc2cccc3ccccc23)C1c1ccccc1", "note": "(stereo not drawn) [SBFI26, α-truxillic acid 1-naphthyl mono-ester]", "values": [{"measurement": "suppression in tumour masses over control (by bioluminescence)", "value": "about 4.9 fold and 4.9 fold"}]}]}
